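After a 16-hour treatment, caspase 3/7 activation is measured by luciferase light output in a renal mesangial cell line.
Percent caspase activation, scaled so DMSO is 0% and 100 µM tamoxifen is 100%; higher values mean stronger activation.
The call comes from curve shape, fit quality and efficacy: complete or strong partial well-fit curves are active, flat curves are inactive, and anything else is inconclusive.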

Values are in %.
Common to all entries: at 91.7 µM (top of the series).
Every entry below has the call inconclusive.
Only part of the assay is shown, chiefly results filed as inconclusive.
An entry listed twice with the same setting is a separate test.

Compound	caspase-3 activation (%)
O=C1C2(Cl)C3(Cl)C4(Cl)C(Cl)(Cl)C5(Cl)C3(Cl)C1(Cl)C5(Cl)C24Cl (stereo not drawn)	25.68
C=C1C(CCl)(CCl)C2(Cl)C(Cl)C(Cl)C1(Cl)C2(Cl)Cl (stereo not drawn)	150.1
COc1cc(/C=C/C(=O)CC(=O)/C=C/c2ccc(O)c(OC)c2)ccc1O	59.22
Nc1ccccc1N	37.39
BrCC(Br)(Br)Br	32.53
COc1cccc2c1C(=O)c1c(O)c3c(c(O)c1C2=O)C[C@@](O)(C(C)=O)C[C@@H]3O[C@H]1C[C@H](N)[C@H](O)[C@H](C)O1	2.119
c1ccc(Nc2ccc3ccccc3c2)cc1	58.88
O=C1C2(Cl)C3(Cl)C4(Cl)C(Cl)(Cl)C5(Cl)C3(Cl)C1(Cl)C5(Cl)C24Cl (stereo not drawn)	73.79
CN1CSC(=S)N(C)C1	60.84
CCCCCCCC[N+](CCCCCCCC)(CCCCCCCC)CCCCCCCC	-0.9789
[CH3][Hg][Cl]	-3.354
CCCCCCCCn1sccc1=O	-2.155

Data taken from PubChem BioAssay AID660, deposited by NCATS (2007).